Values from PubChem BioAssay AID1259254 (NCATS, 2017)
Aim: 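Genome-wide screen for genes that prevent DNA re-replication in cancer cells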 (primary screen). Cell system: human HCT116 colorectal cancer cells. Reagent: single siRNA against human genes. Duration: 3 days. Measured: 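Imaged Hoechst DNA stain sorts each cell into a cycle phase by DNA amount; per plate, G2 fraction set to 0% for non-targeting and 100% for GMNN siRNA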. Scale: G2 robust z-score and G2 cells, % of GMNN control: higher = more G2 cells, more excess DNA replication; raw share of cells in G2: higher = larger share of cells with G2 DNA content. Active means: 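An siRNA counts as active if its G2 robust z-score lies at least 5 MADs above the screen median; here such calls match roughly 38% of GMNN control or more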.
This is a random part of about 59,000 reagents tested. About 1,550 of all reagents (2.6%) were called active. 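G2 share is only a proxy for re-replication; each gene was hit by three separate siRNAs, and active genes were retested.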 Raw values vary from plate to plate and are shown uncorrected. Reagents against one gene are numbered here. Not stated in the record: the amount of reagent.

| Gene | reagent no. | G2 robust z-score | G2 cells, % of GMNN control | raw share of cells in G2 (%) | outcome |
| --- | --- | --- | --- | --- | --- |
| GCNA | 1 | -0.591 | -1.19 | 3.61 | inactive |
| GCNA | 2 | 2.21 | 18.5 | 8.84 | inactive |
| GCNA | 3 | -0.79 | -2.59 | 1.06 | inactive |
| CPEB2-DT | 1 | -0.21 | 1.49 | 3.63 | inactive |
| CPEB2-DT | 2 | 0.0978 | 3.66 | 5.03 | inactive |
| CPEB2-DT | 3 | 0.753 | 8.26 | 6.55 | inactive |
| CRTAM | 1 | -1.22 | -5.61 | 2.43 | inactive |
| CRTAM | 2 | -0.801 | -2.67 | 5.26 | inactive |
| CRTAM | 3 | -0.523 | -0.71 | 4.04 | inactive |
| CCBE1 | 1 | -0.0907 | 2.33 | 3.89 | inactive |
| CCBE1 | 2 | 0.433 | 6.02 | 5.25 | inactive |
| CCBE1 | 3 | -0.991 | -4 | 2.12 | inactive |
| AAR2 | 1 | 1.22 | 11.5 | 8.75 | inactive |
| AAR2 | 2 | -0.0372 | 2.71 | 5.11 | inactive |
| AAR2 | 3 | 1.29 | 12 | 7.5 | inactive |
| ARHGAP45 | 1 | -0.606 | -1.29 | 5.85 | inactive |
| ARHGAP45 | 2 | -0.548 | -0.89 | 3.86 | inactive |
| ARHGAP45 | 3 | 0.761 | 8.32 | 6.71 | inactive |
| TEX26 | 1 | 0.727 | 8.08 | 4.18 | inactive |
| TEX26 | 2 | -0.124 | 2.1 | 4.93 | inactive |
| TEX26 | 3 | -0.425 | -0.0228 | 3.32 | inactive |
| CDH10 | 1 | -0.22 | 1.42 | 5.51 | inactive |
| CDH10 | 2 | 0.301 | 5.08 | 6.78 | inactive |
| CDH10 | 3 | 0.157 | 4.07 | 5.5 | inactive |
| GTF2H3 | 1 | 0.0765 | 3.51 | 5.49 | inactive |
| GTF2H3 | 2 | 4.37 | 33.7 | 17.3 | inactive |
| GTF2H3 | 3 | 0.18 | 4.23 | 7.3 | inactive |
| GPATCH2L | 1 | 1.34 | 12.4 | 9.3 | inactive |
| GPATCH2L | 2 | 0.35 | 5.43 | 6.39 | inactive |
| GPATCH2L | 3 | -0.489 | -0.47 | 2.99 | inactive |
| TCF12 | 1 | 0.822 | 8.75 | 8.02 | inactive |
| TCF12 | 2 | -1.04 | -4.34 | 2.7 | inactive |
| TCF12 | 3 | -0.487 | -0.461 | 4.82 | inactive |
| ATP11AUN | 1 | 7.21 | 53.7 | 23.3 | active |
| ATP11AUN | 2 | 1.17 | 11.2 | 7.96 | inactive |
| ATP11AUN | 3 | 4.22 | 32.6 | 18.3 | inactive |
| GLUL | 1 | 0.0758 | 3.5 | 6.51 | inactive |
| GLUL | 2 | 4.02 | 31.2 | 14.8 | inactive |
| GLUL | 3 | -0.28 | 1 | 5.64 | inactive |
| DDTL | 1 | 0.445 | 6.1 | 6.58 | inactive |
| DDTL | 2 | 3.09 | 24.7 | 11.8 | inactive |
| DDTL | 3 | -0.287 | 0.95 | 3.38 | inactive |
| ADRA2C | 1 | 1.42 | 12.9 | 9.43 | inactive |
| ADRA2C | 2 | -1.06 | -4.46 | 2.98 | inactive |
| ADRA2C | 3 | 0.855 | 8.98 | 7.13 | inactive |
| PSG8 | 1 | 5.83 | 44 | 20.6 | active |
| PSG8 | 2 | 1.24 | 11.7 | 7.85 | inactive |
| PSG8 | 3 | -0.607 | -1.3 | 2.68 | inactive |
| SF3A2 | 1 | 1.24 | 11.7 | 10.5 | inactive |
| SF3A2 | 2 | 1.79 | 15.6 | 10.1 | inactive |
| SF3A2 | 3 | 1.76 | 15.4 | 9.54 | inactive |
| PRKAR1A | 1 | 0.0416 | 3.26 | 6.1 | inactive |
| PRKAR1A | 2 | -0.481 | -0.416 | 4.52 | inactive |
| PRKAR1A | 3 | -1.47 | -7.34 | 1.7 | inactive |
| ZBTB20 | 1 | -0.224 | 1.39 | 4.45 | inactive |
| ZBTB20 | 2 | -0.437 | -0.107 | 6.12 | inactive |
| ZBTB20 | 3 | -0.0939 | 2.31 | 4.95 | inactive |
| FMNL1 | 1 | 2.68 | 21.8 | 12.1 | inactive |
| FMNL1 | 2 | 1.78 | 15.5 | 10.6 | inactive |
| FMNL1 | 3 | -0.269 | 1.07 | 4.39 | inactive |
| EEF1E1 | 1 | -1.34 | -6.48 | 2.75 | inactive |
| EEF1E1 | 2 | -0.383 | 0.275 | 3.29 | inactive |
| EEF1E1 | 3 | -0.916 | -3.48 | 3.34 | inactive |
| ELAPOR2 | 1 | -0.109 | 2.2 | 4.38 | inactive |
| ELAPOR2 | 2 | 1.38 | 12.7 | 7.47 | inactive |
| ELAPOR2 | 3 | -0.487 | -0.458 | 3.05 | inactive |
| SNX16 | 1 | 0.793 | 8.55 | 8.25 | inactive |
| SNX16 | 2 | -0.249 | 1.22 | 5.63 | inactive |
| SNX16 | 3 | -0.782 | -2.53 | 2.87 | inactive |
| ILF3 | 1 | 0.45 | 6.14 | 7.58 | inactive |
| ILF3 | 2 | 2.11 | 17.8 | 11.3 | inactive |
| ILF3 | 3 | -0.133 | 2.03 | 4.09 | inactive |
| PCDH15 | 1 | -0.502 | -0.561 | 4.02 | inactive |
| PCDH15 | 2 | 0.629 | 7.39 | 8.71 | inactive |
| PCDH15 | 3 | 1.35 | 12.4 | 8.75 | inactive |
| ZNF827 | 1 | -0.649 | -1.6 | 3.29 | inactive |
| ZNF827 | 2 | -0.187 | 1.65 | 3.42 | inactive |
| ZNF827 | 3 | 0.507 | 6.53 | 5.35 | inactive |
| SCPEP1 | 1 | -0.971 | -3.87 | 4.21 | inactive |
| SCPEP1 | 2 | -0.197 | 1.58 | 5.47 | inactive |
| SCPEP1 | 3 | 1.09 | 10.6 | 7.88 | inactive |
| EIF2S3 | 1 | 2.42 | 20 | 12.5 | inactive |
| EIF2S3 | 2 | 2 | 17.1 | 11.7 | inactive |
| EIF2S3 | 3 | 0.116 | 3.78 | 5 | inactive |
| ACTC1 | 1 | 1.99 | 16.9 | 10.5 | inactive |
| ACTC1 | 2 | 0.0989 | 3.66 | 6.38 | inactive |
| ACTC1 | 3 | 0.801 | 8.6 | 7.19 | inactive |

Taken from above:
SF3A2 #1, G2 cells, % of GMNN control = 11.7
For “G2 robust z-score”, FMNL1 #3 has -0.269
For “outcome”, TEX26 #2 shows inactive
SNX16 #3, G2 robust z-score = -0.782
Result for SF3A2 #2 in “G2 cells, % of GMNN control”: 15.6
Value for ILF3 #3 under “outcome”: inactive
